Measurements: PMC5488176
Results are given in words; binding and its absence hold for the method and conditions named. Some binding calls cover weakened binding; strength is not graded here. Sequences can lack the tags named with a protein. One block for each molecule: values may come before it.

Sequences of proteins named here, by UniProt entry; tags and fusion partners are left off.
UniProt O82486: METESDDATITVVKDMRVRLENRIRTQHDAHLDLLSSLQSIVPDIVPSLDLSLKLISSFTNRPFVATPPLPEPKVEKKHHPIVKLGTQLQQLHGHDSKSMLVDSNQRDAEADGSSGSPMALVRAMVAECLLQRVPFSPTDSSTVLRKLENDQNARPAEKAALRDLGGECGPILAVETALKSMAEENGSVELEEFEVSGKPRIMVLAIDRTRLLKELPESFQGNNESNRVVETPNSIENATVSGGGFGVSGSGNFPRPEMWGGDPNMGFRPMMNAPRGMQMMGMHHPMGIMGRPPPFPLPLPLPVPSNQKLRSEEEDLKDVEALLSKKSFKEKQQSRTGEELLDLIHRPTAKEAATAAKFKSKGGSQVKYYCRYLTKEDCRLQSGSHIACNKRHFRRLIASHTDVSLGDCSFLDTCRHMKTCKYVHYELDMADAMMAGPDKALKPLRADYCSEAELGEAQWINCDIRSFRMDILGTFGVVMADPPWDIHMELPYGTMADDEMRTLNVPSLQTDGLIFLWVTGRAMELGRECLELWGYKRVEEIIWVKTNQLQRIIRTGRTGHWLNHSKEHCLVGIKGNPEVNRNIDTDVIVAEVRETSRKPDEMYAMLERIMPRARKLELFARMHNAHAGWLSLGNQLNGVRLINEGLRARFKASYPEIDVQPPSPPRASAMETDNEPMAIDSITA

Target: T1, FIP37, yeast two-hybrid fusion (Arabidopsis thaliana) (UniProt Q9ZSZ8)
T1 sequence: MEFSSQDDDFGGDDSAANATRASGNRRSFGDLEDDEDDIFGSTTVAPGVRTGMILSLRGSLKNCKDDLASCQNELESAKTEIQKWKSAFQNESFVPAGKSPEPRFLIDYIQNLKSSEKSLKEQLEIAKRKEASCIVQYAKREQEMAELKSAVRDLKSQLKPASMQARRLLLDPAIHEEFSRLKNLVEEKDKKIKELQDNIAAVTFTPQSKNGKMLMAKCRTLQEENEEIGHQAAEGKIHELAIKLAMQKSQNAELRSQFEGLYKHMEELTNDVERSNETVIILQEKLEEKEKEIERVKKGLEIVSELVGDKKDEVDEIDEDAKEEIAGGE
Assay: two-hybrid; yeast two-hybrid, fusions to activation domain (pDEST22) and binding domain (pDEST32); growth on media lacking histidine with 3-AT (-LTH) or lacking adenine (-LTA), recorded after 4 d; three technical and three biological replicates

Molecule: MTA, yeast two-hybrid fusion (from UniProt O82486 1-685)
binding: binds

binding: binds
B1: FIP37, yeast two-hybrid fusion (protein, UniProt Q9ZSZ8 1-330)
chain: T1 sequence
